Results as given in article PMC4490383.

By UniProt entry, the sequences of proteins in these tests, tags left out.
UniProt O14737: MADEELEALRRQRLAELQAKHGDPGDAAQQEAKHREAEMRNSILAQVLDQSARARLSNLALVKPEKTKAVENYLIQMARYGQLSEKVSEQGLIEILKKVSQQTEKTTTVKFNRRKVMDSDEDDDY
UniProt O15379: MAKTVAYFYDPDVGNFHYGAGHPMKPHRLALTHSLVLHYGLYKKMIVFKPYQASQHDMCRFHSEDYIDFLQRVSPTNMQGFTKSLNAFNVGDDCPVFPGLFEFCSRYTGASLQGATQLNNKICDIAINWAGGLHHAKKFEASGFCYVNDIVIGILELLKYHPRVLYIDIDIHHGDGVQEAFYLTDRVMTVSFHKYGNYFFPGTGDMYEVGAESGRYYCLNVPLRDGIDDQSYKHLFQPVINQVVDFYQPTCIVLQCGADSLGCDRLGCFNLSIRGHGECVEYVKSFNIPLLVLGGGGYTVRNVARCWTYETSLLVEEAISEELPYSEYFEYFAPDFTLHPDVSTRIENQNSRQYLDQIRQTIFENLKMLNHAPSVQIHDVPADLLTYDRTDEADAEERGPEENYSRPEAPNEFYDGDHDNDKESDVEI

Molecular target: PDCD5 wild type (construct not told in the main text) (UniProt O14737)
Test: affinity purification with mass spectrometry; immunopurified PDCD5 complex, trypsin digest, LC-MS/MS (LTQ Orbitrap XL)

With “HDAC3 (construct not told in the main text; supplementary experiments) (from UniProt O15379 1-428)” the binding was “binds”.

These are yes or no findings as the source states them, for the method shown. In cells and extracts the contact can be indirect. These calls come from enrichment with a bait or labelling near it, and not all partners need be listed.
